Experimental data reported in PubChem BioAssay AID588497 (NMMLSC, 2011).
Screen size: about 360,000 compounds; about 780 (0.22%) were called active. Inconclusive means that the source gave no clear call. Such entries were picked first, then a sample of the others. Rule as the data show it: active = inhibition above about 35% (passing the limit was not always enough); inconclusive = no clear call, values can overlap the other calls.

Test system: Botulinum neurotoxin type F light chain protease (Clostridium botulinum)
Assay: BoNT/F light chain protease inhibitors, primary screen, biochemical, flow cytometry, MLPCN library (AID 588497); also: plate controls were buffer without enzyme for full effect and enzyme alone for no effect
Settings: Multiplex microsphere protease cleavage assay, at 10 µM, hits give high values

SMILES | inhibition
CCOC(=O)c1cc2ccccc2n1C1CCN(CCc2ccccc2)CC1 | inactive: -3%
O=C1NC[C@@H](CCCCN2C[C@H](Cc3ccc(O)cc3)N(CCc3ccccc3)C(=O)C2=O)N(CCc2ccc(O)cc2)C1=O | inactive: -2%
CCOC(=O)c1ccc(NS(=O)(=O)c2c(C)n[nH]c2C)cc1 | inconclusive: 4.8%
COc1ccc(CCN2C(=NC(=O)C(C)C)SC3CS(=O)(=O)CC32)cc1OC (stereo not given) | inconclusive: -25.4%
COc1c(S(=O)(=O)N2CCN(C)CC2)ccc(Cl)c1Cl | inconclusive: 7.7%
O=C(Nc1cccc2c1[nH]c1ccccc12)C(F)(F)F | inconclusive: -11.4%
C=CCNC(=S)N1CCN(c2ccccc2Cl)CC1 | inconclusive: -31.1%
COC(=O)C(CC(C)C)NC(=O)c1ccc([N+](=O)[O-])cc1 (stereo not given) | inconclusive: -20%
O=C(NCc1c(Cl)cccc1Cl)c1ccc2nnsc2c1 | inconclusive: -5.3%
CCC(C)NC(=O)CN(c1ccc(Cl)c(Cl)c1)S(C)(=O)=O (stereo not given) | inactive: -1.3%
Cc1cn(C2CC3OCC3O2)c(=O)[nH]c1=O (stereo not given) | inconclusive: -9.9%
Cc1ccccc1N=Cc1ccc[nH]1 | inconclusive: 32.7%
Cc1ccc2[nH]c(CNC(=O)c3ccc(F)cc3)cc2c1 | inconclusive: 14.3%
COc1ccc2[nH]c(C(=O)O)c(NS(=O)(=O)c3ccc(C)cc3C)c2c1 | inactive: -0.3%
COCC(=O)N1CCc2ccc(NC(=O)c3ccccc3Cl)cc2C1 | inconclusive: 32.6%
CC(NC(=O)c1ccc(Br)o1)C1CC2CCC1C2 (stereo not given) | inactive: -5.2%
O=C(NCC(=O)N1CCN(S(=O)(=O)c2ccc3c(c2)OCCO3)CC1)c1ccccc1Cl | inactive: 0.9%
CC(C)c1ccc(O)c(NC(=O)c2cccnc2)c1 | inactive: -1.2%
CCCCNc1nc(N)ncc1[N+](=O)[O-] | inconclusive: -34%
Cc1nn(C)cc1C=NCCOCc1ccccc1 | inactive: 20.8%

SMILES | inhibition
COc1cc(N2CCCC2)c(OC)cc1/C=C(/C#N)c1cccc(Br)c1 | active: 169%
CC(NC(=O)c1cc(-c2ccc3c(c2)OCO3)nc2ccccc12)C(C)(C)C (stereo not given) | inactive: -1.7%
CCOC(=O)c1ccc(Nc2sc(C(=O)c3cccc([N+](=O)[O-])c3)c(N)c2C#N)cc1 | inconclusive: -19.5%
O=C(Nc1ccc(Cl)cc1)Nc1ccc(Oc2cccnc2)nc1 | inconclusive: 57.1%
CC(C)(C)c1cc(C(=O)NNC(=O)c2ccc(Cl)cc2)no1 | inconclusive: -2.6%
O=C(OCCN1C(=O)c2cccc3c(N4CCOCC4)ccc(c23)C1=O)c1ccc(Cl)cc1Cl | inactive: 19.1%
O=C1CC(N2CCN(c3ccc(F)cc3)CC2)C(=O)N1Cc1ccccc1 (stereo not given) | inconclusive: -20.6%
O=C(Nc1nc(COc2ccccc2)cs1)C12CC3CC(CC(C3)C1)C2 | inactive: -5.6%
NC(=O)c1cc([N+](=O)[O-])c(Cl)cc1NCc1cccnc1 | inactive: -3.6%
CN(c1ccccc1)S(=O)(=O)c1ccc2c(c1)oc(=O)n2C | inconclusive: 7.8%
NCCCCCC(=O)N/N=C/c1ccc2nccnc2c1 | inconclusive: -61.5%
S=c1[nH]nc(-c2n[nH]c3c2CCC3)n1/N=C/C=C/c1ccco1 | inconclusive: -63.5%
Cc1cccc(NC(=O)CSCC(=O)N2CCN(Cc3ccc4c(c3)OCO4)CC2)c1 | inconclusive: -3.1%
COCCCn1c(=O)c2ccccc2n(Cc2cc(C(=O)OC)ccc2OC)c1=O | inconclusive: 17.3%
CCc1ccc(OCCCC(=O)Nc2ccc(N3CCCCC3)cc2)cc1 | active: 39.7%
CCCCC(=O)OCC(=O)N1N=C(c2c[nH]c3ccccc23)C(O)C1c1ccc(OC)cc1 (stereo not given) | inconclusive: 24.6%
Clc1nnc(Cl)c2c1ncn2Cc1ccccc1 | inconclusive: 5.6%
COc1ccc(C(=O)NCCCn2ccnc2)cc1 | inconclusive: -8.4%
CC(C)c1ccc(N2C(=O)CC(NNC(=O)c3cccnc3)C2=O)cc1 (stereo not given) | inconclusive: 3.2%
Nc1nc(=S)c2ncn(C3CCCC3)c2[nH]1 | inconclusive: -14.2%

5 entries drawn at random from the list so far:
SMILES | inhibition
CCc1ccc(OCCCC(=O)Nc2ccc(N3CCCCC3)cc2)cc1 | active: 39.7%
CC(NC(=O)c1cc(-c2ccc3c(c2)OCO3)nc2ccccc12)C(C)(C)C (stereo not given) | inactive: -1.7%
O=C1CC(N2CCN(c3ccc(F)cc3)CC2)C(=O)N1Cc1ccccc1 (stereo not given) | inconclusive: -20.6%
O=C(Nc1nc(COc2ccccc2)cs1)C12CC3CC(CC(C3)C1)C2 | inactive: -5.6%
Cc1cccc(NC(=O)CSCC(=O)N2CCN(Cc3ccc4c(c3)OCO4)CC2)c1 | inconclusive: -3.1%

Next results

SMILES | inhibition
Cc1ccc(NC(=O)COc2ccc(S(=O)(=O)N3CCOCC3)cc2)cc1 | inactive: 2.7%
O=C(NNC(=O)c1ccccc1-n1cccc1)c1ccc(F)cc1 | inactive: 4%
COC(=O)c1sc(C(C)(C)C)cc1CSc1ccccc1 | inconclusive: 34.4%
CC(=NCCc1c[nH]c2ccccc12)c1c(O)n(Cc2ccccc2)c(=O)[nH]c1=O | inconclusive: 21.9%
Cc1c(C(=O)NCC(c2ccco2)N(C)C)oc2c(Cl)cccc12 (stereo not given) | inconclusive: 13.2%
Cc1ccnc(SCC(=O)N2CCc3ccccc3C2)n1 | inactive: -4.9%
CCC(=O)N(CCC1(C(C)C)CCOC(C)(C)C1)C(C)c1cccs1 (stereo not given) | inconclusive: 28.6%
Cc1ccc(NC(=S)N2CCCCC2)cc1C | inconclusive: -104%
CCc1ccc2nc(/N=C(\N)NC(=O)c3ccccc3)nc(C)c2c1 | inconclusive: 24.4%
O=C(NCc1cccnc1)c1cnc2ccccc2n1 | inconclusive: -130%
N/C(=N\OC(=O)C12CC3CC(CC(C3)C1)C2)c1ccncc1 | inconclusive: -7%
CCOC(=O)c1[nH]c2cc3c(cc2c1NC(=O)CN1CCC(C)CC1)OCO3 | inconclusive: -0.3%
O=C(O)C1CCCCC1C(=O)Nc1ccc(F)cc1F (stereo not given) | inactive: 2.9%
O=C(C[n+]1ccc(C(=O)NCCCO)cc1)c1cccc(Br)c1 | inconclusive: -8.8%
O=C(c1nc2ccccc2[nH]1)c1ccccc1[N+](=O)[O-] | inconclusive: -31.2%
COc1ccc(OCCSc2nnc(-c3ccc(OC)cc3)n2N)cc1 | inactive: 2.3%
O=C(C1CCCN(Cc2ccccc2[N+](=O)[O-])C1)N1CCCC1 (stereo not given) | inactive: -13.6%
Cc1ccc2nc(C)cc(N/N=C/c3cccc(O)c3)c2c1 | inconclusive: -5.1%
Cn1c2ccccc2c(=O)c2ccc(C#CC3(N)CCCCC3)cc21 | inactive: 8.3%
C=CCOc1ccccc1/C=N/NC(=O)Cc1ccccc1 | inconclusive: -29%
